Assay results published in PMC12381164.
Results are given in words; binding and its absence hold for the method and conditions named. Binding seen in cells or lysates may run through a third protein. Some binding calls cover weakened binding; strength is not graded here. For some of these results: Sequences can lack the tags named with a protein. Values belong to the binder of their own block, whether it stands above or below them.

Columns and labels:
[1] = biological target: T1, vascular endothelial zinc finger 1 (VEZF1), endogenous (human (endogenous in Huh7)) (UniProt Q14119); assay: co-IP; endogenous proteins in Huh7 cells; lysate supernatant incubated with anti-VEZF1 overnight at 4 °C, protein A/G agarose beads, Western blotting
T1 sequence: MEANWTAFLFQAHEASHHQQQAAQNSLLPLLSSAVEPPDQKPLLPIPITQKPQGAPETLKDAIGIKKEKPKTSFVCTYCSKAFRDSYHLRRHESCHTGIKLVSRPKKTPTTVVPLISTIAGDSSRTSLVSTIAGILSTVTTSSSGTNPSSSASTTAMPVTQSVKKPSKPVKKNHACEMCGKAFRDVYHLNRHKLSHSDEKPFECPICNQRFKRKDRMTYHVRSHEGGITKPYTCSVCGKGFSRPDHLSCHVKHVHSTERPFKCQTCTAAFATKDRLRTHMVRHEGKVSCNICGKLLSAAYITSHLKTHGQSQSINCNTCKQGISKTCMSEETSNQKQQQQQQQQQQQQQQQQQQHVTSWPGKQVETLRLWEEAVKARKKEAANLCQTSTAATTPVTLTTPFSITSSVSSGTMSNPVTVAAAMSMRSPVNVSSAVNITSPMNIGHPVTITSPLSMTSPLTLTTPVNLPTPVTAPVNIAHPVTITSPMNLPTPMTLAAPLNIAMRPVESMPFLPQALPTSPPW

[2] = biological target: T2, HA-tagged VEZF1, full-length (UniProt Q14119); assay: co-IP; HEK293 cells co-transfected with Flag-OGT and HA-VEZF1 (full-length or truncated), harvested after 48 h; lysate incubated with anti-FLAG, anti-HA or control IgG overnight at 4 °C, protein A/G agarose beads, Western blotting
T2 sequence: T1 sequence

[3] = biological target: T3, HA-tagged truncated VEZF1 (168-361aa) (UniProt Q14119); assay: as above
T3 sequence: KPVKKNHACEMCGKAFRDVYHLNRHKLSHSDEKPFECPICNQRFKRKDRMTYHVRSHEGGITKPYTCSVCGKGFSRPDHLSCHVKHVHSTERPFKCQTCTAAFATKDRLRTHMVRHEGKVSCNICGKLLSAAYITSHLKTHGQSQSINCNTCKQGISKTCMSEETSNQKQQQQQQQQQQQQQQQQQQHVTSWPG

[4] = biological target: T4, HA-tagged truncated VEZF1 (1-167aa) (UniProt Q14119); assay: as above
T4 sequence: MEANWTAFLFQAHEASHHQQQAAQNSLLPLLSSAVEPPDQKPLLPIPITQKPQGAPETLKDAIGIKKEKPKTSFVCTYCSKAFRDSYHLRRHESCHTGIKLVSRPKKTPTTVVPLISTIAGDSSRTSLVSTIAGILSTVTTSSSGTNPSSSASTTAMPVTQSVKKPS

- binding [1]: binds
B1: O-GlcNAc transferase (OGT), endogenous (enzyme, UniProt O15294 1-1046)
chain: MASSVGNVADSTEPTKRMLSFQGLAELAHREYQAGDFEAAERHCMQLWRQEPDNTGVLLLLSSIHFQCRRLDRSAHFSTLAIKQNPLLAEAYSNLGNVYKERGQLQEAIEHYRHALRLKPDFIDGYINLAAALVAAGDMEGAVQAYVSALQYNPDLYCVRSDLGNLLKALGRLEEAKACYLKAIETQPNFAVAWSNLGCVFNAQGEIWLAIHHFEKAVTLDPNFLDAYINLGNVLKEARIFDRAVAAYLRALSLSPNHAVVHGNLACVYYEQGLIDLAIDTYRRAIELQPHFPDAYCNLANALKEKGSVAEAEDCYNTALRLCPTHADSLNNLANIKREQGNIEEAVRLYRKALEVFPEFAAAHSNLASVLQQQGKLQEALMHYKEAIRISPTFADAYSNMGNTLKEMQDVQGALQCYTRAIQINPAFADAHSNLASIHKDSGNIPEAIASYRTALKLKPDFPDAYCNLAHCLQIVCDWTDYDERMKKLVSIVADQLEKNRLPSVHPHHSMLYPLSHGFRKAIAERHGNLCLDKINVLHKPPYEHPKDLKLSDGRLRVGYVSSDFGNHPTSHLMQSIPGMHNPDKFEVFCYALSPDDGTNFRVKVMAEANHFIDLSQIPCNGKAADRIHQDGIHILVNMNGYTKGARNELFALRPAPIQAMWLGYPGTSGALFMDYIITDQETSPAEVAEQYSEKLAYMPHTFFIGDHANMFPHLKKKAVIDFKSNGHIYDNRIVLNGIDLKAFLDSLPDVKIVKMKCPDGGDNADSSNTALNMPVIPMNTIAEAVIEMINRGQIQITINGFSISNGLATTQINNKAATGEEVPRTIIVTTRSQYGLPEDAIVYCNFNQLYKIDPSTLQMWANILKRVPNSVLWLLRFPAVGEPNIQQYAQNMGLPQNRIIFSPVAPKEEHVRRGQLADVCLDTPLCNGHTTGMDVLWAGTPMVTMPGETLASRVAASQLTCLGCLELIAKNRQEYEDIAVKLGTDLEYLKKVRGKVWKQRISSPLFNTKQYTMELERLYLQMWEHYAAGNKPDHMIKPVEVTESA

- binding [2]: binds
- binding [3]: binds
- binding [4]: binds
B2: Flag-tagged OGT (enzyme, UniProt O15294 1-1046)
chain: B1 chain
